Measurements: US20070003983A1
Results are given in words; binding and its absence hold for the method and conditions named. For part of these data: In cells and extracts the contact can be indirect. Some binding calls cover weakened binding; strength is not graded here.

What was measured:
[1] = target: T1, Drosophila Notch N^TM fragment (110 kd) (Drosophila) (UniProt P07207); assay: Western blot (C461.3B) of supernatants of S2 cells kept 1 h in 2 mM CaCl2 or 2 mM EDTA
T1 sequence: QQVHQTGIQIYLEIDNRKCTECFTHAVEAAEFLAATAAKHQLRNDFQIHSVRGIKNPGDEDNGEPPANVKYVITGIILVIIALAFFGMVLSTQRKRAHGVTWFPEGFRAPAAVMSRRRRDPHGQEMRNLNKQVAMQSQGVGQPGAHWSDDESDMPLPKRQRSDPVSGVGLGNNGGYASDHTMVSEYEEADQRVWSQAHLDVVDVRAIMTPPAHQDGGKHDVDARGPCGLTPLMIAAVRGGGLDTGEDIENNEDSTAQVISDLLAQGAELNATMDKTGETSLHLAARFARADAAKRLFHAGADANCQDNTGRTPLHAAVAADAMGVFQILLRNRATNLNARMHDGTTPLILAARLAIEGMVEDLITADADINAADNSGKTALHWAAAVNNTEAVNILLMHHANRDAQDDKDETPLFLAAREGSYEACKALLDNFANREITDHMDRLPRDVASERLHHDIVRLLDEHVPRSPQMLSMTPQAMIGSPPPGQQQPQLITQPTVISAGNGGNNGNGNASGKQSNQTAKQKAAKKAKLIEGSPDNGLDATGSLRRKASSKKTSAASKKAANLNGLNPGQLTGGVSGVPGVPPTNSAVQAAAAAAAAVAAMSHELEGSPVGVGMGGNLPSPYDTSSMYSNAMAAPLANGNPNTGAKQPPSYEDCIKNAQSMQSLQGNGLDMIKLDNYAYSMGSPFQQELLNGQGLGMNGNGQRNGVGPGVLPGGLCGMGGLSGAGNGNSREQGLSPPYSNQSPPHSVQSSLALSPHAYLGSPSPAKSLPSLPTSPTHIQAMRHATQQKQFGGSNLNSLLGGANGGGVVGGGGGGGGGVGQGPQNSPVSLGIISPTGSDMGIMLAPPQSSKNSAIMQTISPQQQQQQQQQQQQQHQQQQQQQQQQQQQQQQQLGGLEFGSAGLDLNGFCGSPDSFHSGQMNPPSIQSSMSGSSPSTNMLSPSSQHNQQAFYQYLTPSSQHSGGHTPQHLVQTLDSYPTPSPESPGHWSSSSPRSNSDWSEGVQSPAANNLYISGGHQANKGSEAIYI

[2] = target: T1, Drosophila Notch N^TM fragment (110 kd) (Drosophila); assay: conclusion from the EDTA release and sucrose gradient experiments
[3] = target: T1, Drosophila Notch N^TM fragment (110 kd) (Drosophila); assay: release of N^EC from S2 cells in EDTA against CaCl2; sucrose density centrifugation
[4] = target: T1, Drosophila Notch N^TM fragment (110 kd) (Drosophila); assay: 5-20% sucrose gradient sedimentation of Triton X-100 S2 cell extracts, Western blot with C461.3B and 9C6
[5] = target: T2, human Notch2 N^TM fragment (about 110 kDa transmembrane/intracellular cleavage product) (human) (UniProt Q04721); assay: co-immunoprecipitation with PGHN (intracellular epitopes) from 35S-pulse-labeled SJ-NB5 cells
T2 sequence: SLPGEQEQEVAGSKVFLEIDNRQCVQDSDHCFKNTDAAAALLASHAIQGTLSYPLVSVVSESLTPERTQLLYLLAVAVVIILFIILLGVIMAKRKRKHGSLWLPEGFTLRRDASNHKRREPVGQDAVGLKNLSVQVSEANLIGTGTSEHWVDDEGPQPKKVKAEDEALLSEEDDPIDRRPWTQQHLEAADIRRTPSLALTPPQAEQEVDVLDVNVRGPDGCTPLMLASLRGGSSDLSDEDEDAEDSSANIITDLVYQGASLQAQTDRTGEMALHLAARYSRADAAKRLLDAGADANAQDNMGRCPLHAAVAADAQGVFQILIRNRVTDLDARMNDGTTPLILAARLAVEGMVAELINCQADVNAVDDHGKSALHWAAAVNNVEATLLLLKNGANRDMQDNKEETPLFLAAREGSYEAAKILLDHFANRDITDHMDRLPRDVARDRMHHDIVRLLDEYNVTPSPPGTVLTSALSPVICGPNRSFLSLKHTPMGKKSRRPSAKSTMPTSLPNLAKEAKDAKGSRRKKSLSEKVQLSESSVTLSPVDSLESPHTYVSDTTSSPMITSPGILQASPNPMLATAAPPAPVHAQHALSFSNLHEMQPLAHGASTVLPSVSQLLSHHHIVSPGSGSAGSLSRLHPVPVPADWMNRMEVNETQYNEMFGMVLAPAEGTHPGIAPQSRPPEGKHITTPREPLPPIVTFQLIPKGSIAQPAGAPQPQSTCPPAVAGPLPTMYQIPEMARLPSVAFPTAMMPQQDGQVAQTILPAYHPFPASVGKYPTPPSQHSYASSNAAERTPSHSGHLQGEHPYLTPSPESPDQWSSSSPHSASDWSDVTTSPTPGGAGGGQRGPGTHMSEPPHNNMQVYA

[6] = target: T2, human Notch2 N^TM fragment (about 110 kDa transmembrane/intracellular cleavage product) (human); assay: co-immunoprecipitation with PGHN from 35S-pulse-labeled SJ-NB5 cells
[7] = target: T2, human Notch2 N^TM fragment (about 110 kDa transmembrane/intracellular cleavage product) (human); assay: pulse chase, surface biotinylation, PGHN immunoprecipitation then streptavidin precipitation
[8] = target: heterodimeric form of Drosophila Notch (N^EC/N^TM) on S2 cells (Drosophila) (UniProt P07207); assay: co-immunoprecipitation with Delta antibodies from aggregates of Notch and Delta expressing S2 cells; lost when calcium is depleted by EGTA (data not shown)
[9] = target: heterodimeric form of Drosophila Notch (N^EC/N^TM) on S2 cells (Drosophila) (UniProt P07207); assay: co-immunoprecipitation with Delta antibodies from aggregates of Notch and Delta expressing S2 cells, Western blot with 9C6

Measured: binding

Drosophila Notch N^EC fragment (from UniProt P07207 53-1674) (receptor)
binds: [1] | [2] | [3] | [4]

human Notch2 N^EC fragment (about 180 kDa extracellular cleavage product) (from UniProt Q04721 26-1608) (receptor)
binds: [5] | [6] | [7]

B1: Delta (ligand, Drosophila, UniProt P10041 19-833, looked up)
chain: QVHSSGSFELRLKYFSNDHGRDNEGRCCSGESDGATGKCLGSCKTRFRVCLKHYQATIDTTSQCTYGDVITPILGENSVNLTDAQRFQNKGFTNPIQFPFSFSWPGTFSLIVEAWHDTNNSGNARTNKLLIQRLLVQQVLEVSSEWKTNKSESQYTSLEYDFRVTCDLNYYGSGCAKFCRPRDDSFGHSTCSETGEIICLTGWQGDYCHIPKCAKGCEHGHCDKPNQCVCQLGWKGALCNECVLEPNCIHGTCNKPWTCICNEGWGGLYCNQDLNYCTNHRPCKNGGTCFNTGEGLYTCKCAPGYSGDDCENEIYSCDADVNPCQNGGTCIDEPHTKTGYKCHCANGWSGKMCEEKVLTCSDKPCHQGICRNVRPGLGSKGQGYQCECPIGYSGPNCDLQLDNCSPNPCINGGSCQPSGKCICPAGFSGTRCETNIDDCLGHQCENGGTCIDMVNQYRCQCVPGFHGTHCSSKVDLCLIRPCANGGTCLNLNNDYQCTCRAGFTGKDCSVDIDECSSGPCHNGGTCMNRVNSFECVCANGFRGKQCDEESYDSVTFDAHQYGATTQARADGLTNAQVVLIAVFSVAMPLVAVIAACVVFCMKRKRKRAQEKDDAEARKQNEQNAVATMHHNGSGVGVALASASLGGKTGSNSGLTFDGGNPNIIKNTWDKSVNNICASAAAAAAAAAAADECLMYGGYVASVADNNNANSDFCVAPLQRAKSQKQLNTDPTLMHRGSPAGSSAKGASGGGPGAAEGKRISVLGEGSYCSQRWPSLAAAGVAGACSSQLMAAASVAGSGAGTAQQQRSVVCGTPHM
binds: [8] | [9]
